Results are given in words; binding and its absence hold for the method and conditions named. Binding seen in cells or lysates may run through a third protein. For some of these results: Binding can be weak; no strength is given. For some of these results: Sequences can lack the tags named with a protein.
Key:
Assay in all cases: co-IP; E14/T cells co-transfected with (HA)3-Nanog or mutants and (Flag)3Sox2 or mutants; nuclear extract (treated with benzonase); HA antibody 4°C 3 h, Protein G; immunoblot with anti-FLAG
(HA)3-NanogΔHD = (HA)3-NanogΔHD (UniProt Q80Z64)
(HA)3Nanog = target: T1, (HA)3Nanog (UniProt Q80Z64)
T1 sequence: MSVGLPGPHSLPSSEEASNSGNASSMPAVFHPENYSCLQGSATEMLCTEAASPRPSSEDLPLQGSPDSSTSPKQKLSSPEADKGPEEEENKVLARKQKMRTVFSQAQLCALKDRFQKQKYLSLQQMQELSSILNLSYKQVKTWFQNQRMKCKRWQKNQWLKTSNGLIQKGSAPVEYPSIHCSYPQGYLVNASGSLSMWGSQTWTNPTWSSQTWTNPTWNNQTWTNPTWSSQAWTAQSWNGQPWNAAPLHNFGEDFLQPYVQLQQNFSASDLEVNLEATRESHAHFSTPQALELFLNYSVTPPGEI

Chains of the proteins cited; added tags and fusions are not shown. Lines headed by an entry give the natural chain unless they say otherwise; changes in a name come on top.
UniProt P48432: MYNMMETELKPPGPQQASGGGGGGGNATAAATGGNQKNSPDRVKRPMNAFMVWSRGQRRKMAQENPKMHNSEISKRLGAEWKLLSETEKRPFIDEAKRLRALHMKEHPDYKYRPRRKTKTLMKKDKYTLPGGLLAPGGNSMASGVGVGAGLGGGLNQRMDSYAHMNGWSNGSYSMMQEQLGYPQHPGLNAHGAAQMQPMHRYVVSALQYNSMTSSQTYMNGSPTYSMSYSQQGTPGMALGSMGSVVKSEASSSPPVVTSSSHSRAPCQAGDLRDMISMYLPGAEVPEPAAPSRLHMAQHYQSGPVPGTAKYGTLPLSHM

(HA)3-NanogΔWR = (HA)3-NanogΔWR (UniProt Q80Z64)

Row | Substance | binding ((HA)3-NanogΔHD) | binding ((HA)3Nanog) | binding ((HA)3-NanogΔWR)
1 | (Flag)3-Sox2 ΔHMG (from UniProt P48432) | binds | binds | –
2 | (Flag)3Sox2 (from UniProt P48432 1-319) | binds | – | no binding

Reference: publication PMC3746198
